Reference: paper PMC12507394
These are yes or no findings as the source states them, for the method shown. In cells and extracts the contact can be indirect. A yes stands for co-enrichment or nearness to the bait. Other partners may have been found.

Target: cTAGE5-EGFP fusion protein (knock-in, cTAGE5-EGFP-KI MEF cells) (mouse (endogenous in MEF))
Experiment: affinity purification with mass spectrometry; co-IP with GFP antibody from cTAGE5-EGFP-KI MEF cell lysates, precipitated proteins identified by LC-MS/MS; IgG as control

B1: lamin B1 (LMNB1) (protein, UniProt P14733 1-588)
chain: MATATPVQQQRAGSRASAPATPLSPTRLSRLQEKEELRELNDRLAVYIDKVRSLETENSALQLQVTEREEVRGRELTGLKALYETELADARRALDDTARERAKLQIELGKFKAEHDQLLLNYAKKESDLSGAQIKLREYEAALNSKDAALATALGDKKSLEGDLEDLKDQIAQLEASLSAAKKQLADETLLKVDLENRCQSLTEDLEFRKNMYEEEINETRRKHETRLVEVDSGRQIEYEYKLAQALHEMREQHDAQVRLYKEELEQTYHAKLENARLSSEMNTSTVNSAREELMESRMRIESLSSQLSNLQKESRACLERIQELEDMLAKERDNSRRMLSDREREMAEIRDQMQQQLSDYEQLLDVKLALDMEISAYRKLLEGEEERLKLSPSPSSRVTVSRASSSRSVRTTRGKRKRVDVEESEASSSVSISHSASATGNVCIEEIDVDGKFIRLKNTSEQDQPMGGWEMIRKIGDTSVSYKYTSRYVLKAGQTVTVWAANAGVTASPPTDLIWKNQNSWGTGEDVKVILKNSQGEEVAQRSTVFKTTIPEEEEEEEEEPIGVAVEEERFHQQGAPRASNKSCAIM
  binding: binds
